Source: paper doi:10.1101/2019.12.16.876623 (bioRxiv, 2019)
No constants are given. Whether binding was seen depends on the method and setting. For some assays here: Binding seen in cells or lysates may run through a third protein. Some entries that bind do so weakly or less than the wild type. Tags and fused reporters may be left off the sequences shown.

T1: GAL4-BD-Exo1 (S. cerevisiae) (UniProt P39875)
T1 sequence: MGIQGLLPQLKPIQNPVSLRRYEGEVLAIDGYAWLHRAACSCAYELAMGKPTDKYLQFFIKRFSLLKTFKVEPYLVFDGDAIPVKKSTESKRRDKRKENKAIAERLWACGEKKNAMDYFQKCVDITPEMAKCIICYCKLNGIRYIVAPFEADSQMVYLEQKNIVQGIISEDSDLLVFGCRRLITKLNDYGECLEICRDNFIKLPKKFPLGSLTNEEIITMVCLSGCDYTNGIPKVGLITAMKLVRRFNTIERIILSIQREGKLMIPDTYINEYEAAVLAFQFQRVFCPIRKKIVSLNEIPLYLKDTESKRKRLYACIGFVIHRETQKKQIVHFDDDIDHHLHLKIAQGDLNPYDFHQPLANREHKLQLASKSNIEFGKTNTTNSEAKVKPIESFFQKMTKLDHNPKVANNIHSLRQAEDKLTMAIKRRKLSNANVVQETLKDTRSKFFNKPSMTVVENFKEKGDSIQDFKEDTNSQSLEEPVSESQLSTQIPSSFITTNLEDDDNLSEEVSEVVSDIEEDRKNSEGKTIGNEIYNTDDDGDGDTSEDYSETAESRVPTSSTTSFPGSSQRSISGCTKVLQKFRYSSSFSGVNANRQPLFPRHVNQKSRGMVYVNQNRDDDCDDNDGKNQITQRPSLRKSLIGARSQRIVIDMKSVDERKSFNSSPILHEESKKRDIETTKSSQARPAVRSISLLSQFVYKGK

T2: Cdc5-TAP (S. cerevisiae) (UniProt P32562)
T2 sequence: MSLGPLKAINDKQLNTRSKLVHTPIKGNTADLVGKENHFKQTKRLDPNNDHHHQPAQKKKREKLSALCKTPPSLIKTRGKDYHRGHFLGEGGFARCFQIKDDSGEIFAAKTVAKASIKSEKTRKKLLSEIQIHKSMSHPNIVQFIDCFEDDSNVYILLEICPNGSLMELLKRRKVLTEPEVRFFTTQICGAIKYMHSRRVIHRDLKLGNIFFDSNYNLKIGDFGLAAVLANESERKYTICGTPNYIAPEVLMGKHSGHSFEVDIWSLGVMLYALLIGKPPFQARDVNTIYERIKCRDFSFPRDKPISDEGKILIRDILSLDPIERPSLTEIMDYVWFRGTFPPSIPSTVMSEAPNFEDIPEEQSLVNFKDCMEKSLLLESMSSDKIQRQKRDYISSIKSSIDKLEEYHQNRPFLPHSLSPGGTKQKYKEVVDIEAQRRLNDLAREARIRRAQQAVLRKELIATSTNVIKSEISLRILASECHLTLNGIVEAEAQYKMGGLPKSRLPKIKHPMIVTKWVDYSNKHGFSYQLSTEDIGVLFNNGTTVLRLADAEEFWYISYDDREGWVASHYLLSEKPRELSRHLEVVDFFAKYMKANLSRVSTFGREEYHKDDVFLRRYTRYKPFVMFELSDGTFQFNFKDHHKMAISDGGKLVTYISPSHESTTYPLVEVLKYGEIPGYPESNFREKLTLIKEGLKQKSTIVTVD

T3: Pms1-Flag (Pms1 with an internal His6-Flag3 tag) (S. cerevisiae) (UniProt P14242)
T3 sequence: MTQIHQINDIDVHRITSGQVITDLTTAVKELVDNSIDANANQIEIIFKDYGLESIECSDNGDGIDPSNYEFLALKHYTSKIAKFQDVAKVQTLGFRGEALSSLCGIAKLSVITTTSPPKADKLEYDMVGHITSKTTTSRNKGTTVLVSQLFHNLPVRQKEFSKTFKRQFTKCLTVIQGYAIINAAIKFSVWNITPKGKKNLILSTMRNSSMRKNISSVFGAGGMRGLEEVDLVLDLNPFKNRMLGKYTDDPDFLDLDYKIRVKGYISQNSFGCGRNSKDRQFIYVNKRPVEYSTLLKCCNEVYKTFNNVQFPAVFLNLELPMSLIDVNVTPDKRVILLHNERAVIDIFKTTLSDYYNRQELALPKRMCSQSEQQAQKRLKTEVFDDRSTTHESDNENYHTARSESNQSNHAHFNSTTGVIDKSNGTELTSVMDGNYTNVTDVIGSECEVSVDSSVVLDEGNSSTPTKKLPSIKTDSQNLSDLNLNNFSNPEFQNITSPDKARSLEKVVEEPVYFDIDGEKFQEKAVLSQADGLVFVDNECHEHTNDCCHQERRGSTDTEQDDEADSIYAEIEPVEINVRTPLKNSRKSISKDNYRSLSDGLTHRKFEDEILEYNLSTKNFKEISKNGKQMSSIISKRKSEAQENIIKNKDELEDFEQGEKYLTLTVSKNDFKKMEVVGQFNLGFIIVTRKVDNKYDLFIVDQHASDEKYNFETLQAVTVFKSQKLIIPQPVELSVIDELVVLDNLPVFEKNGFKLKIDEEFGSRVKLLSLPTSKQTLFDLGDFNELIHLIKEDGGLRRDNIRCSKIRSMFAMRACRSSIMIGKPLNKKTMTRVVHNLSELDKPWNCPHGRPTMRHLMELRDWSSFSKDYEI

T4: Msh4-TAP (S. cerevisiae) (UniProt P40965)
T4 sequence: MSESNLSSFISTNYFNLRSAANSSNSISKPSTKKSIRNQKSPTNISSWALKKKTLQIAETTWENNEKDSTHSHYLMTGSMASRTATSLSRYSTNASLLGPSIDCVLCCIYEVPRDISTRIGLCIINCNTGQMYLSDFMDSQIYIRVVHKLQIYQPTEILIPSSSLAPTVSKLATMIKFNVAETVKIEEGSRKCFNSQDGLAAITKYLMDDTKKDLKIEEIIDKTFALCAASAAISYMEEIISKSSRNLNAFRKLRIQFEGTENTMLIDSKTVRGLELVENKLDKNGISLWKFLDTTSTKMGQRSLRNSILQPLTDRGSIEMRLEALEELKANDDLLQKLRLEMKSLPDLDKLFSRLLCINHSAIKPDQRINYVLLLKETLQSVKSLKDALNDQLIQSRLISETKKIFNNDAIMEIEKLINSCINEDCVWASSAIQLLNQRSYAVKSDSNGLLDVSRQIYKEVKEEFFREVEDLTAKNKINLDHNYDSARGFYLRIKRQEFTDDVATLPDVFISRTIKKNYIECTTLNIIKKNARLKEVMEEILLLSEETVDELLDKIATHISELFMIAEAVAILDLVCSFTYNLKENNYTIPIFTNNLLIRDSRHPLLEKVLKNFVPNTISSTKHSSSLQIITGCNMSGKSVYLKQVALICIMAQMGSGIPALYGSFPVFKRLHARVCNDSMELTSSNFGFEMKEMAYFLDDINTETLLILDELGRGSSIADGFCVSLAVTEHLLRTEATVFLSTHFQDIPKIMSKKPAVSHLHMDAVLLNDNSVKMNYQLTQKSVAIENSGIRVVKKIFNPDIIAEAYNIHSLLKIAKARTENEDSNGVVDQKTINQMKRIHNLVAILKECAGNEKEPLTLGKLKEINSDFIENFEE


Columns and labels:
[1] = molecular target: T1, GAL4-BD-Exo1 (S. cerevisiae); assay: two-hybrid
Cdc5-TAP (S. cerevisiae) = molecular target: T2, Cdc5-TAP (S. cerevisiae); assay: co-IP
[2] = molecular target: T3, Pms1-Flag (Pms1 with an internal His6-Flag3 tag) (S. cerevisiae); assay: co-IP
Msh4-TAP (S. cerevisiae) = molecular target: T4, Msh4-TAP (S. cerevisiae); assay: co-IP

| binding [1] | binding (Cdc5-TAP (S. cerevisiae)) | binding [2] | binding (Msh4-TAP (S. cerevisiae)) | Binder |
| --- | --- | --- | --- | --- |
| binds | – | – | – | Mlh1 (two-hybrid fusion) (protein, UniProt P38920 1-769) MSLRIKALDASVVNKIAAGEIIISPVNALKEMMENSIDANATMIDILVKEGGIKVLQITDNGSGINKADLPILCERFTTSKLQKFEDLSQIQTYGFRGEALASISHVARVTVTTKVKEDRCAWRVSYAEGKMLESPKPVAGKDGTTILVEDLFFNIPSRLRALRSHNDEYSKILDVVGRYAIHSKDIGFSCKKFGDSNYSLSVKPSYTVQDRIRTVFNKSVASNLITFHISKVEDLNLESVDGKVCNLNFISKKSISPIFFINNRLVTCDLLRRALNSVYSNYLPKGNRPFIYLGIVIDPAAVDVNVHPTKREVRFLSQDEIIEKIANQLHAELSAIDTSRTFKASSISTNKPESLIPFNDTIESDRNRKSLRQAQVVENSYTTANSQLRKAKRQENKLVRIDASQAKITSFLSSSQQFNFEGSSTKRQLSEPKVTNVSHSQEAEKLTLNESEQPRDANTINDNDLKDQPKKKQKLGDYKVPSIADDEKNALPISKDGYIRVPKERVNVNLTSIKKLREKVDDSIHRELTDIFANLNYVGVVDEERRLAAIQHDLKLFLIDYGSVCYELFYQIGLTDFANFGKINLQSTNVSDDIVLYNLLSEFDELNDDASKEKIISKIWDMSSMLNEYYSIELVNDGLDNDLKSVKLKSLPLLLKGYIPSLVKLPFFIYRLGKEVDWEDEQECLDGILREIALLYIPDMVPKVDTSDASLSEDEKAQFINRKEHISSLLEHVLFPCIKRRFLAPRHILKDVVEIANLPDLYKVFERC |
| – | binds | – | – | Exo1-Myc (protein, UniProt P39875 1-702) MGIQGLLPQLKPIQNPVSLRRYEGEVLAIDGYAWLHRAACSCAYELAMGKPTDKYLQFFIKRFSLLKTFKVEPYLVFDGDAIPVKKSTESKRRDKRKENKAIAERLWACGEKKNAMDYFQKCVDITPEMAKCIICYCKLNGIRYIVAPFEADSQMVYLEQKNIVQGIISEDSDLLVFGCRRLITKLNDYGECLEICRDNFIKLPKKFPLGSLTNEEIITMVCLSGCDYTNGIPKVGLITAMKLVRRFNTIERIILSIQREGKLMIPDTYINEYEAAVLAFQFQRVFCPIRKKIVSLNEIPLYLKDTESKRKRLYACIGFVIHRETQKKQIVHFDDDIDHHLHLKIAQGDLNPYDFHQPLANREHKLQLASKSNIEFGKTNTTNSEAKVKPIESFFQKMTKLDHNPKVANNIHSLRQAEDKLTMAIKRRKLSNANVVQETLKDTRSKFFNKPSMTVVENFKEKGDSIQDFKEDTNSQSLEEPVSESQLSTQIPSSFITTNLEDDDNLSEEVSEVVSDIEEDRKNSEGKTIGNEIYNTDDDGDGDTSEDYSETAESRVPTSSTTSFPGSSQRSISGCTKVLQKFRYSSSFSGVNANRQPLFPRHVNQKSRGMVYVNQNRDDDCDDNDGKNQITQRPSLRKSLIGARSQRIVIDMKSVDERKSFNSSPILHEESKKRDIETTKSSQARPAVRSISLLSQFVYKGK |
| – | binds | binds | binds weakly | Mlh3-Myc (Mlh3 with an internal Myc8 or Myc18 tag) (protein, UniProt Q12083 1-715) MSQHIRKLDSDVSERLKSQACTVSLASAVREIVQNSVDAHATTIDVMIDLPNLSFAVYDDGIGLTRSDLNILATQNYTSKIRKMNDLVTMKTYGYRGDALYSISNVSNLFVCSKKKDYNSAWMRKFPSKSVMLSENTILPIDPFWKICPWSRTKSGTVVIVEDMLYNLPVRRRILKEEPPFKTFNTIKADMLQILVMHPMISLNVQYTDKLRINTEVLFRSKNITEGLTKHQQMSQVLRNVFGAIIPPDMLKKVSLKFNEYQIEGIISKMPVGLKDLQFIYINGRRYADSAFQGYVDSLFQAQDFGEKGMSLLKTKSVGKPYRSHPVFILDVRCPQTIDDLLQDPAKKIVKPSHIRTIEPLIVKTIRSFLTFQGYLTPDKSDSSFEIVNCSQKTATLPDSRIQISKRNQVLNSKMKIARINSYIGKPAVNGCRINNSTINYEKIKNIRIDGQKSRLRNKLSSRPYDSGFTEDYDSIGKTITDFSISRSVLAKYEVINQVDKKFILIRCLDQSNCPLLVLVDQHACDERIRLEELFYSLLTEVVTGTFVARDLKDCCIEVDRTEADLFKHYQSEFKKWGIGYETIEGTMETSLLEIKTLPEMLTSKYNGDKDYLKMVLLQHAHDLKDFKKLPMDLSHFENYTSVDKLYWWKYSSCVPTVFHEILNSKACRSAVMFGDELTRQECIILISKLSRCHNPFECAHGRPSMVPIAELK |
